Assay results reported in US20150110793A1.
Where a chain is given by its changes, count along the chain named. No constants are given. Whether binding was seen depends on the method and setting. Some binding calls cover weakened binding; strength is not graded here. Blank lines part the entries; values can stand above or below the binder they belong to.

Experiments:
[1] = target: T1, EREG expressed on cells (SK-HEP-1 lines forced to express EREG: SKE-18, SKE-23, SKE-4B2, SKE-10, SKE-15, SKE1; host SK-HEP-1; DLD-1) (UniProt O14944); assay: flow cytometry of cells (FITC) and immunohistochemistry of transplanted tissue with the EP27 antibody as primary antibody; neither the legend nor Example 10 names the staining antibody of the histograms or says which histogram is the control; EP27 is the only staining antibody named in Example 10
T1 sequence (looked up): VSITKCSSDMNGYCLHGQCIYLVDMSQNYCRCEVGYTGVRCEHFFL

[2] = target: T1, EREG expressed on cells (SK-HEP-1 lines forced to express EREG: SKE-18, SKE-23, SKE-4B2, SKE-10, SKE-15, SKE1; host SK-HEP-1; DLD-1); assay: immunohistochemical staining of xenograft tissue of EREG-expressing SK-HEP-1 lines
[3] = target: T2, Human EREG (Biacore analyte) (human) (UniProt O14944); assay: SPR (Biacore T100, single-cycle kinetics), antibody captured on Protein A, human EREG as analyte; bar = KD of the antibody / KD of chimeric EP27 (cH-G1/cL-k)
T2 sequence: T1 sequence (looked up)

[4] = target: T2, Human EREG (Biacore analyte) (human); assay: SPR (Biacore)
[5] = target: T2, Human EREG (Biacore analyte) (human); assay: SPR (Biacore T100, single-cycle kinetics), antibody captured on Protein A, human EREG as analyte; bar = KD of the antibody / KD of chimeric EP27
[6] = target: T3, soluble human EREG fragment having a mature EGF domain structure (R&D Systems, cat. no. 1195-EP/CF) (human) (UniProt O14944); assay: competitive ELISA
T3 sequence: T1 sequence (looked up)

B2: H111-G1d/LB-k (antibody, human IgG1, kappa, V domains shown)
VH: QDQLVQSGAEVKKPGASVKVSCKASGFNIKDTYIQWVRQAPGQGLEWMGRIDPLRGNTKYREKFEGRVTITADTSTNTAYMELSSLRSEDTAVYYCVRSGTLFDFWGQGTLVTVSS
VL: DIQMTQSPSSLSASVGDRVTITCKASQDIHKYIAWYQQKPGQAPRLLIQYTSTLQPGVPSRFSGSGSGTDYTFTISSLQPEDIATYYCLQYDNLRTFGGGTKVEIKR
binding [3]: binds
binding [4]: binds
binding [5]: binds

B3: H116-G1d/LB-k (antibody, human IgG1, kappa, V domains shown)
VH: B2 VH with G56R
VL: B2 VL
binding [3]: binds
binding [4]: binds
binding [5]: binds

B7: H118-G1d/LB-k (antibody, human IgG1, kappa, V domains shown)
VH: B2 VH with T58R
VL: B2 VL
binding [3]: binds
binding [4]: binds
binding [5]: binds

B8: H112-G1d/LB-k (antibody, human IgG1, kappa, V domains shown)
VH: B2 VH with I51R
VL: B2 VL
binding [3]: binds

B10: H117-G1d/LB-k (antibody, human IgG1, kappa, V domains shown)
VH: B2 VH with N57R
VL: B2 VL
binding [3]: binds
binding [4]: binds
binding [5]: binds

B12: H111-G1d/L48-k (antibody, human IgG1, kappa, V domains shown)
VH: B2 VH
VL: B2 VL with L94R
binding [3]: binds
binding [4]: binds
binding [5]: binds

Further lines, results first:

binding [1]: binds
binding [2]: binds
B1: mouse hybridoma-derived EP27 (antibody, V domains shown)
VH: EDQLQQSGAELVKPGASVKLSCTASGFNIKDTYIQWVKLRPEQGLEWIGRIDPLNGNTKYVPKFQGKATITADTSSNTAYLQLSSLTSEDTAVYYCVRSGTLFDFWGQGTTLTVSS
VL: DIQMTQSPSSLSASLGGKVTITCKASQDIHKYIAWYQHKPGKGPRLLIQYTSTLQPGIPSRFSGSGSGRDYSFSISNLEPEDIATYYCLQYDNLRTFGGGTKLEIK

binding [3]: binds
B4: H119-G1d/LB-k (antibody, human IgG1, kappa, V domains shown)
VH: B2 VH with K59R
VL: B2 VL

binding [6]: binds
B5: HY-G1d/L23-k (antibody, human IgG1, kappa, V domains shown)
VH: B2 VH with R55N, R61V, E62P, E65Q
VL: B2 VL with P56E

binding [3]: binds
binding [4]: binds
binding [5]: binds
B6: H132-G1d/LB-k (antibody, human IgG1, kappa, V domains shown)
VH: B2 VH with G56R, T101R
VL: B2 VL

binding [6]: binds
B9: HY-G1d/L20-k (antibody, human IgG1, kappa, V domains shown)
VH: B2 VH with R55N, R61V, E62P, E65Q
VL: B2 VL with K24Q, Q55E

binding [3]: binds
binding [4]: binds
binding [5]: binds
B11: H121-G1d/LB-k (antibody, human IgG1, kappa, V domains shown)
VH: B2 VH with K63R
VL: B2 VL

binding [3]: binds
binding [4]: binds
binding [5]: binds
B13: H120-G1d/LB-k (antibody, human IgG1, kappa, V domains shown)
VH: B2 VH with Y60R
VL: B2 VL

binding [3]: binds
binding [4]: binds
binding [5]: binds
B14: H123-G1d/LB-k (antibody, human IgG1, kappa, V domains shown)
VH: B2 VH with G66R
VL: B2 VL
